# Measurements reported in paper doi:10.1101/2025.03.24.645127.
# Protein sequences, listed by entry. Tags and fused reporters are not part of them.
# UniProt P49407: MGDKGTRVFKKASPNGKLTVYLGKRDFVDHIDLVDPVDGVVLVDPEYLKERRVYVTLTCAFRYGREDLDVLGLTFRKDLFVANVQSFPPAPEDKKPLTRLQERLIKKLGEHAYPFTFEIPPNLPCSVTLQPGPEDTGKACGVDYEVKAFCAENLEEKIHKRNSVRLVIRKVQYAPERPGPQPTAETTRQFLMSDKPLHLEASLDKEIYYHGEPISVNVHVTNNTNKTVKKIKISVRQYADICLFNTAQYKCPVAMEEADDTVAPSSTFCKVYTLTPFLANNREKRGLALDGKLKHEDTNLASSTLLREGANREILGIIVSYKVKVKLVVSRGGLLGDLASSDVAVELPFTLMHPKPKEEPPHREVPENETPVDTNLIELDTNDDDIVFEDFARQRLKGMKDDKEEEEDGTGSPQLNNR
# Results are given in words; binding and its absence hold for the method and conditions named. Binding seen in cells or lysates may run through a third protein. Some entries that bind do so weakly or less than the wild type.
# Molecular target: T1, GPR119-SmBiT (human) (UniProt Q8TDV5)
# T1 sequence: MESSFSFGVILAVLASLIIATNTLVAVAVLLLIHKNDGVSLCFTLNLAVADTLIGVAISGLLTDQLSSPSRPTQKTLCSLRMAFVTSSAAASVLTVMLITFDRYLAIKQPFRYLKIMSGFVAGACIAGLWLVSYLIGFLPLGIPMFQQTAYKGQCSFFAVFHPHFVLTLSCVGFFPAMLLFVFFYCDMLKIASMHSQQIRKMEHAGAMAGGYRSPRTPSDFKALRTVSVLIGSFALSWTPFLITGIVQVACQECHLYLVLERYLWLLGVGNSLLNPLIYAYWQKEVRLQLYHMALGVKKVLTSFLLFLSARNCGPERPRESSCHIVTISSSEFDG
# Assay: split reporter
substance,measurement,value
LgBiT-β-arrestin1 (from UniProt P49407 1-418),binding,binds
